Measured values: PubChem BioAssay AID743402 (Broad Institute, 2014)
The campaign covered roughly 1,200 compounds. About 140 (12%) were called active.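 How the source made its calls: active means fitted curve falls past -35% activity change at a dose under twice the top valid dose, in every replicate test; inconclusive means replicate tests disagree on the call; inactive means the rest, including activity in the opposite direction.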 The list lacks most of the strong results.

Assay: restoration of mutant CFTR halide transport – FRT cells, YFP quenching, cherry-pick, dose response (AID 743402);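 further: compounds act as correctors raising surface CFTR-F508del before acute activation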
Details: FRT CFTR-F508del YFP iodide quenching, 24 h, channel opened with forskolin and a potentiator; at 26 µM (top of the series) unless noted

Activity change, negative = more quenching (active), inactive:
O=C(NCCC1CCCCN1S(=O)(=O)c1cccs1)C(=O)Nc1ccc(F)cc1F (stereo not drawn) -6.67%
Cn1cnc2nc[nH]c2c1=S 3.85%
c1ccc(-c2csc(NC3=NCCCCC3)n2)cc1 17.9%
COc1ccc(COc2cc(-c3cccc(OC)c3)nc3ccc(NC(=O)c4ccc(OC)cc4)cc23)cc1 -3.33%
O=C(NCCOc1ccccc1)c1cc([N+](=O)[O-])ccc1N1CCOCC1 9.38%
CC(=O)Nc1ccc(-c2csc(NC(=O)CN3C(=O)NC4(CCCC4)C3=O)n2)cc1 6.67%
N#CC1=C(N)Oc2c(ccc3cccnc23)C1c1ccccc1 (stereo not drawn) 6.46%
Cc1ccc(-c2ccc3c(c2)O[C@H](CN(C)C(=O)Nc2ccc(F)cc2)[C@@H](C)CN([C@@H](C)CO)S3(=O)=O)cc1 17.1%
Cc1cc(C)nc(N(C#N)Cc2cccc(Cl)c2)n1 0%
CCSC(=O)N1c2ccc(OC)cc2C=CC1C#N (stereo not drawn) -3.12%
COc1ccccc1NS(=O)(=O)c1ccc(C)c(C(=O)Nc2cc(C)on2)c1 18.8%
O=C(c1ccc2ccccc2c1)N1CCN(Cc2ccccc2)CC1 9.79%
CNS(=O)(=O)c1cccc(C(=O)OCC(=O)c2cc(C)n(CC3CCCO3)c2C)c1 (stereo not drawn) 16.4%
O=C(O)COC(=O)Cc1ccccc1Nc1c(Cl)cccc1Cl 3.12%
CSc1ccccc1NC(=O)COC(=O)CCC(=O)c1ccc(F)cc1 3.33%
COc1ccc(C2=NOC(C(=O)NCc3ccc(F)cc3)C2)cc1OC (stereo not drawn) 12.9%
Cc1ccc(CNC(=O)c2ccc3c(=O)c(O)c(-c4ccc(C)cc4)[nH]c3c2)cc1 3.54%
O=C(c1cccc(F)c1)N1CC[C@@H]2[C@H](CO)Nc3ccc(-c4ccccc4F)cc3[C@@H]21 3.12% [at 23.5 µM]
Cc1cccc(N2CCN(C(=O)c3c(-c4ccccc4Cl)noc3C)CC2)c1C 9.13%
COc1cc2c(-c3ccccc3)c(C)oc2cc1/C=N/NC(N)=S -6.67%
Cc1cc2c(cc1S(=O)(=O)Nc1ccc(F)cc1)n(C)c(=O)c(=O)n2C -0.721%
COc1ccc2[nH]c(C(=O)N/N=C/c3ccc(O)cc3O)cc2c1 6.25%
Nc1ccn([C@@H]2O[C@H](C(=O)NCC(F)(F)F)[C@@H](O)[C@H]2O)c(=O)n1 3.33%
O=C(CCC(=O)N1CCOc2ccc(Cl)cc21)N1CCN(c2ccccn2)CC1 12.5%
COc1cccc(N2CCN(C(=O)c3ccc(CS(=O)c4ccc(Cl)cc4)o3)CC2)c1 (stereo not drawn) 0%
Cn1nc(C(=O)NNC(=O)CCOc2ccc(C(C)(C)C)cc2)c2ccccc2c1=O 0%
CCC1=Nc2cc(C(=O)NCc3cccnc3)ccc2Sc2ccc(C)cc21 -14.7%
CC(=O)O[C@H]1C(=O)[C@@]2(C)[C@H]([C@H](OC(=O)c3ccccc3)[C@]3(O)C[C@H](OC(=O)[C@H](O)C(NC(=O)c4ccccc4)c4ccccc4)C(C)=C1C3(C)C)[C@]1(OC(C)=O)CO[C@@H]1C[C@@H]2O (stereo partly drawn) 12.9%
Cc1noc(C)c1COc1ccc(C(=O)N2CCN(S(=O)(=O)c3ccc(F)cc3)CC2)cc1 11.1%
CCOc1ccc(C(=O)O/N=C(\N)c2ccccn2)cc1 18.4%
COC(=O)c1cc(C(=O)N2CCN(c3cccc(Cl)c3)CC2)cc([N+](=O)[O-])c1 -3.33%
COc1ccc(C2=Nn3c(nnc3-c3ccccc3F)SC2)cc1OC1CCCC1 -4.84%
O=C1NC(Cc2ccc(O)cc2)c2nc3ccc(Br)cc3c(=O)n2-c2cc3ccccc3cc21 (stereo not drawn) 3.33%
O=C1c2ccc3c4c(ccc(c24)C(=O)N1CCCCO)C(=O)N(CCCCO)C3=O -31.2%
COc1ccc(S(=O)(=O)Nc2ccc3c(c2)C(=O)N([C@H](C)CO)C[C@@H](C)[C@@H](CN(C)Cc2ccc(C(F)(F)F)cc2)O3)cc1 3.33%
COc1ccccc1OCCNC(=O)CCNC(=O)c1ccccc1OC -3.33%
COc1cc(Nc2c3c(nc4ccccc24)CCC3)cc(OC)c1OC -16%
O=C(N/N=C/c1c(O)ccc2ccccc12)c1ccc(Br)o1 -7.69%
O=S(=O)(c1ccc(Br)cc1)N1CCCc2ccccc21 12.9%
O=C(CN(Cc1ccco1)Cc1ccco1)Nc1cc(S(=O)(=O)N2CCCCC2)ccc1Cl 10%
COc1ccc(-c2c(C)cc3oc(=O)cc(-c4ccccc4)c3c2C)cc1OC -16%
Cc1nc(NCc2cccnc2)c2c3c(sc2n1)CCCC3 3.33%
COc1ccc(NC(=O)c2ccc(OCC3CCCO3)cc2)cc1OC (stereo not drawn) 8.99%
CCOc1ccc(N(CC)C(=O)COc2cc(=O)n(C)c3ccccc23)cc1 7.14%
O=C(NC1CCN(Cc2ccccc2)CC1)c1cc(S(=O)(=O)N2CCOCC2)ccc1Cl 10%
O=C(N/N=C/c1cc(Br)cc(Cl)c1O)c1ccc2c(c1)OCO2 11.5%
O=C(NCc1cccnc1)c1cc(C2CCCCN2C(=O)CCCc2ccccc2)on1 (stereo not drawn) 13.3%
CCC(=O)N1CC2(CCN(Cc3ccc(Cl)cc3)CC2)c2c(n(C)c3cc(OC)ccc23)[C@H]1CO -6.91%
CCOC(=O)c1ccc(-c2c(-c3cc(OC)c(OC)c(OC)c3)noc2C)cc1F 3.33%
CCCN1[C@H](C(=O)N2CCOCC2)[C@@H](CO)[C@@H]2Cn3c(ccc(/C=C/c4ccccc4)c3=O)[C@@H]21 10.2%
COc1ccc(S(=O)(=O)N2CCN(CCOc3ccccc3Cl)CC2)cc1OC 10%
CCOc1ccc(NC(=O)c2ccc(NC(=O)CN3C(=O)C(=O)N(CC(C)C)C3=O)cc2)cc1 10.8%
CC(=O)c1ccc(Nc2cc(C)nc3c(C)cc(C)cc23)cc1 12.9% [at 8 µM]

An excerpt from above in order of number of heavy atoms, rising:
Activity change, negative = more quenching (active), inactive:
Cn1cnc2nc[nH]c2c1=S 3.85%
O=C(N/N=C/c1cc(Br)cc(Cl)c1O)c1ccc2c(c1)OCO2 11.5%
O=C(NC1CCN(Cc2ccccc2)CC1)c1cc(S(=O)(=O)N2CCOCC2)ccc1Cl 10%
